Experimental data published in patent US9428505B2, “Hydantoin derivative” (Chugai Seiyaku Kabushiki Kaisha, priority 2012, dated 2016).
For at least one compound, name, drawing or mass did not settle the structure.

Protein sequences, listed by entry. Tags and fused reporters are not part of them. Residues count along the entry.
UniProt Q03431, 27-593: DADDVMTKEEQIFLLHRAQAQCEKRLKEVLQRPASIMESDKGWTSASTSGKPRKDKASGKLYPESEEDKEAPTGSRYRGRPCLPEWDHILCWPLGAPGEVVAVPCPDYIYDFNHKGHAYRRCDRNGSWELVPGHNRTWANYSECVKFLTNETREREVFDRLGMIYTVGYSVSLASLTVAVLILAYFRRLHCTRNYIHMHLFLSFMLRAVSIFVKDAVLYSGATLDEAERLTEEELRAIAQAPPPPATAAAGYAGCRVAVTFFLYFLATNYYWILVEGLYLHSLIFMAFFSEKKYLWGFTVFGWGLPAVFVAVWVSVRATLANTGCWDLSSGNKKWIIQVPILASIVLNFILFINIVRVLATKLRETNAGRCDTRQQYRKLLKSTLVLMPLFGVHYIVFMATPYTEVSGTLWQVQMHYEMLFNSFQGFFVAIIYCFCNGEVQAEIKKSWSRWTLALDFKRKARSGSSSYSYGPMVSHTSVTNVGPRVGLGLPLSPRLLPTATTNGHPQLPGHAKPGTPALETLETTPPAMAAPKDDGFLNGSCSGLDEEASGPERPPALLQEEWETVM

Molecular target: human PTH1R (Homo sapiens (Human), UniProt Q03431)
Test: In vitro cAMP signal activity via the human PTH1R (HKRK-B7 cells)
Type: cell-based
Details: concentration giving 20% cAMP signaling activity, 100 nM human PTH(1-34) = 100%
Experimental: Measurement of In Vitro cAMP Signal Activity of Compounds Via the Human PTH1R
Human PTH(1-34) and calcitonin were purchased from Peptide Institute, Inc. (Osaka, Japan), dissolved in 10 mM acetic acid to 1 mM and stored in a −80° C. freezer.
Cells were cultured in Dulbecco's modified Eagle's medium (DMEM) supplemented with 10% fetal bovine serum (Hyclone), 100 units/ml penicillin G and 100 μg/ml streptomycin sulfate (Invitrogen Corp) at 37° C. in a humidified atmosphere containing 5% CO2.
cAMP signal transduction analysis utilized LLC-PK1 cells not expressing the PTH1R, and HKRK-B7 cells, that is, LLC-PK1 cells overexpressing the human PTH1R at 9.5×10^5 receptors/cell (Takasu et al., J. Bone. Miner. Res. 14:11-20, 1999).
HKRK-B7 or LLC-PK1 cells were seeded into a 96-well plate at 1×10^5 cells/well and incubated overnight. On the following day, 50 μl of cAMP assay buffer (DMEM, 2 mM IBMX, 0.2 mg/ml bovine serum albumin, 35 mM Hepes-NaOH, pH 7.4) containing human PTH(1-34) or each compound was added and the plate was placed in a 37° C. incubator. The cells were incubated for 20 minutes. After removing the medium, the cells were washed with 100 μl of cAMP assay buffer once. […] The amount of intracellular cAMP produced was measured using a commercially available cAMP EIA kit (Biotrack cAMP EIA system, GE health care). […]

Cc1cc(N2C(=O)NC(=O)C2(C)C)cc(C)c1CCS(=O)(=O)N1CCC2(CC1)N=C(c1ccc(F)c(C(F)(F)F)c1)NC2=O [Compound 3, 1-(4-(2-((2-(4-fluoro-3-(trifluoromethyl)phenyl)-4-oxo-1,3,8-triazaspiro[4.5]deca-1-en-8-yl)sulfonyl)ethyl)-3,5-dimethylphenyl)-5,5-dimethylimidazolidine-2,4-dione]
EC20: 1500 nM
